Experimental data: doi:10.1101/2024.10.29.620849
These are yes or no findings as the source states them, for the method shown. Binding seen in cells or lysates may run through a third protein. Some results given as binding are weak or reduced against the parent protein; the word gives no strength. For part of these data: Sequences can lack the tags named with a protein.

Legend:
[1] = biological target: ninjurin-1 (NINJ1), endogenous mouse (mouse (endogenous in BMDMs and MEFs)) (UniProt O70131); assay: cross-linking
[2] = biological target: T1, NINJ1-GFP (human) (UniProt Q92982); assay: co-IP
T1 sequence: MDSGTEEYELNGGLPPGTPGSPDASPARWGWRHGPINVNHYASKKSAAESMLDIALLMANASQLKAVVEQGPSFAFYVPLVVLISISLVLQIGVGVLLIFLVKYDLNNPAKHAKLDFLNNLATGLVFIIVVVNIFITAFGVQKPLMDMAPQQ

[3] = biological target: T2, NINJ2-GFP (human) (UniProt Q9NZG7); assay: co-IP
T2 sequence: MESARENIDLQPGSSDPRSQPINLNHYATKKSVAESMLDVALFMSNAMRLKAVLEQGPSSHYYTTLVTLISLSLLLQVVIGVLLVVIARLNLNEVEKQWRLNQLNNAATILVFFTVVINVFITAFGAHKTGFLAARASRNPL

B1: ninjurin-1 (NINJ1), endogenous mouse (protein, UniProt O70131 1-152)
chain: MESGTEEYELNGDLRPGSPGSPDALPPRWGLRNRPINVNHYANKKSAAESMLDIALLMANASQLKAVVEQGNDFAFFVPLVVLISISLVLQIGVGVLLIFLVKYDLNNPAKHAKLDFLNNLATGLVFIIVVVNIFITAFGVQKPVMDVAPRQ
- binding [1]: binds

B2: NINJ2-mCherry (protein, UniProt Q9NZG7 1-142)
chain: T2 sequence
- binding [2]: binds

B3: NINJ1-mCherry (protein, UniProt Q92982)
chain: T1 sequence
- binding [3]: binds
